No constants are given. Whether binding was seen depends on the method and setting. In cells and extracts the contact can be indirect. Some entries that bind do so weakly or less than the wild type. One block for each substance: values may come before it.
Columns and labels:
[1] = target: Flag tagged LRP6 D1315N LDLRR mutant (human) (UniProt O75581); assay: co-IP; lysates of 293T cells co-expressing Flag-LRP6 and HA-Axin; IP with anti LRP6 antibody or axin antibody; NP40 buffer
[2] = target: Flag tagged LRP6 S1317P LDLRR mutant (human) (UniProt O75581); assay: as above
[3] = target: Flag tagged LRP6 wild type (human) (UniProt O75581); assay: as above
[4] = target: endogenous LRP6 (human (endogenous in 293T)) (UniProt O75581); assay: as above
[5] = target: Flag tagged LRP6 wild type (human) (UniProt O75581); assay: co-IP; 293T cells transfected with wild type Itch, then with LRP6 WT or KR mutant; Wnt3a for 1hr; IP with Flag, immunoblotting; IgG control IP
[6] = target: Flag tagged LRP6 D1315N LDLRR mutant (human) (UniProt O75581); assay: co-IP; 293T cells co-expressing LRP6 and LRP5-WT; IP with LRP6 or LRP5 antibodies; NP40 buffer
[7] = target: Flag tagged LRP6 S1317P LDLRR mutant (human) (UniProt O75581); assay: as above
[8] = target: Flag tagged LRP6 wild type (human) (UniProt O75581); assay: as above

Chains of the proteins cited; added tags and fusions are not shown. Lines headed by an entry give the natural chain unless they say otherwise; changes in a name come on top. A line that says so, or that is headed by a name, gives the form on record, which may keep a tag or linker. Residues count along the entry.
Flag tagged LRP6 wild type (O75581, residues 20-1613): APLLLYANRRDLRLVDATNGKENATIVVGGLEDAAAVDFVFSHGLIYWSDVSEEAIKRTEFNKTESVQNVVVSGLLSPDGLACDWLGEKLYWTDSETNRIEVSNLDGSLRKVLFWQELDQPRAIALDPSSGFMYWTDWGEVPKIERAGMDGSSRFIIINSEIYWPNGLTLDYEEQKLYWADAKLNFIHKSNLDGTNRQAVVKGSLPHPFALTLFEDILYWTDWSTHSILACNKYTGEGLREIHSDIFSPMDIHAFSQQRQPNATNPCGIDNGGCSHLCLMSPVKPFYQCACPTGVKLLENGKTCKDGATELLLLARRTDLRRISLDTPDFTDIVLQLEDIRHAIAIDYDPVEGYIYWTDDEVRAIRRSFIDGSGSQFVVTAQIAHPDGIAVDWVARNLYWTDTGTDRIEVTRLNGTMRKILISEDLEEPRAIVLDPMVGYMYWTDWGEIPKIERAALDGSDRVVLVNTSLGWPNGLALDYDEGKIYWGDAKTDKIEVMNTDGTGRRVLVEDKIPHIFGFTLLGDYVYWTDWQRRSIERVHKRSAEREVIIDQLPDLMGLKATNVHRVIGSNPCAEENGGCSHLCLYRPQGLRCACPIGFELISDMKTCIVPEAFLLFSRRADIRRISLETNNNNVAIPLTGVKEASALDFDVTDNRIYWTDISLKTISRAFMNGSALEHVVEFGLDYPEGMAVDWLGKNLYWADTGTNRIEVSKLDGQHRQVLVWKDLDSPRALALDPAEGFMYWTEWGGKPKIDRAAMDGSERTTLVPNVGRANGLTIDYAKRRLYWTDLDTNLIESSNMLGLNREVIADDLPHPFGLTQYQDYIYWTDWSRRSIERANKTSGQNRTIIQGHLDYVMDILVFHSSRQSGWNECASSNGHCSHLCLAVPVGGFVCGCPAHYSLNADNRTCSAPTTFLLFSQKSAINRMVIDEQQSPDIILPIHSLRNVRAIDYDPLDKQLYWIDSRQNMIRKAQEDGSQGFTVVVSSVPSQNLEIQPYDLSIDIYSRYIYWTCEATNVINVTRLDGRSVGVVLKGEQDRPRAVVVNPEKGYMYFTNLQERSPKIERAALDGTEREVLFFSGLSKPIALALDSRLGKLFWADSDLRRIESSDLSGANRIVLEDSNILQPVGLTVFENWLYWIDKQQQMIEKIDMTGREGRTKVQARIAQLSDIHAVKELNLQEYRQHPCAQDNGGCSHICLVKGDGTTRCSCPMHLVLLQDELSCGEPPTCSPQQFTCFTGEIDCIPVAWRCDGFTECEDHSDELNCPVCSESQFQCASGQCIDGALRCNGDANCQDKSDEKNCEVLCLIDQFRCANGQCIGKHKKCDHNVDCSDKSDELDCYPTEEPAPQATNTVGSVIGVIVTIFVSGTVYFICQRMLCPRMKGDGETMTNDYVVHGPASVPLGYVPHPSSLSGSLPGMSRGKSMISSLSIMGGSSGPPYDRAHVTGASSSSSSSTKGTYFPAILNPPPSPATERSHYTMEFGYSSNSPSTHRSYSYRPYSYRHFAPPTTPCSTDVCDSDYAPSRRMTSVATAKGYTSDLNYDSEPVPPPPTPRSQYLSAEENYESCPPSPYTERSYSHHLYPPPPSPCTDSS
Flag tagged LRP6 D1315N LDLRR mutant (O75581, form named): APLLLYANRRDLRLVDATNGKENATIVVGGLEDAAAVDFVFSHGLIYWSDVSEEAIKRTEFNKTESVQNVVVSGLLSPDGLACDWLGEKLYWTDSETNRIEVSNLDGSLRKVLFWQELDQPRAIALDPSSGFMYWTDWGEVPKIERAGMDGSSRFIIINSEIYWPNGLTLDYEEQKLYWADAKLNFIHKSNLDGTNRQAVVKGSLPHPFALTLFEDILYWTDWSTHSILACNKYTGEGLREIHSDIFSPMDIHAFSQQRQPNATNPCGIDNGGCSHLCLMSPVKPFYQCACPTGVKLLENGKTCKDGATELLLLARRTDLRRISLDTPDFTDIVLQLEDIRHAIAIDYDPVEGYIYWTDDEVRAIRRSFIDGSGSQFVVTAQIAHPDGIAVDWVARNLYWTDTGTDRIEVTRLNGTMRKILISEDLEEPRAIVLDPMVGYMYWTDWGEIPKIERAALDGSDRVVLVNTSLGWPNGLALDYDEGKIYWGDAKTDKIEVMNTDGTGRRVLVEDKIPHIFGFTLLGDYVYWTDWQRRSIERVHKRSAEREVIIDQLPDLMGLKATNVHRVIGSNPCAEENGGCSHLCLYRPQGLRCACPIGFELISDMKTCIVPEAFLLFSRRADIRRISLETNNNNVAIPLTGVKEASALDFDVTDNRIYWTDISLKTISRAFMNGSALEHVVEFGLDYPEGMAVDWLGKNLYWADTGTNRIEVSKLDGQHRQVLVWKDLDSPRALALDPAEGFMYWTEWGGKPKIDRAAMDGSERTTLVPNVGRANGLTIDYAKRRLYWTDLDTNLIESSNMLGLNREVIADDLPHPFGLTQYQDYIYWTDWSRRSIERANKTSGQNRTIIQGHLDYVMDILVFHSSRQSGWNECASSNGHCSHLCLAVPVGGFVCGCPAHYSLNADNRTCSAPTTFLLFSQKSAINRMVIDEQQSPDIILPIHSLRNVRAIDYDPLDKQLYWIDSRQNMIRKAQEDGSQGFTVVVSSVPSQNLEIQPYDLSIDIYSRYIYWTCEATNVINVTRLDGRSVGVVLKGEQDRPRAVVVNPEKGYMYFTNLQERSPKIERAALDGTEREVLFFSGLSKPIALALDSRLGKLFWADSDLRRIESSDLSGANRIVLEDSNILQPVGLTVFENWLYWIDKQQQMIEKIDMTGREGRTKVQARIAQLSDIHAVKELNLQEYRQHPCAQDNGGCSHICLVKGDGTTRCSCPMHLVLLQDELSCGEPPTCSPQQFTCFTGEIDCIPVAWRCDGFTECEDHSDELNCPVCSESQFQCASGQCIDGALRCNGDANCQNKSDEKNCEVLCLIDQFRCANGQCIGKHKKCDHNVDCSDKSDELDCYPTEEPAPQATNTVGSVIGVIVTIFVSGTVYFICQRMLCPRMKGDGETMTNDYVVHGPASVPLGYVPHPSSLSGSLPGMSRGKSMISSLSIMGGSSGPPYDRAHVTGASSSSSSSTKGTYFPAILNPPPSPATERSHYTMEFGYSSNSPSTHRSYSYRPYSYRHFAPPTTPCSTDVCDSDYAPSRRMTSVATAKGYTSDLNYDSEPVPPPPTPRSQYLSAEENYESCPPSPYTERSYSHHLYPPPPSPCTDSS
Flag tagged LRP6 S1317P LDLRR mutant (O75581, form named): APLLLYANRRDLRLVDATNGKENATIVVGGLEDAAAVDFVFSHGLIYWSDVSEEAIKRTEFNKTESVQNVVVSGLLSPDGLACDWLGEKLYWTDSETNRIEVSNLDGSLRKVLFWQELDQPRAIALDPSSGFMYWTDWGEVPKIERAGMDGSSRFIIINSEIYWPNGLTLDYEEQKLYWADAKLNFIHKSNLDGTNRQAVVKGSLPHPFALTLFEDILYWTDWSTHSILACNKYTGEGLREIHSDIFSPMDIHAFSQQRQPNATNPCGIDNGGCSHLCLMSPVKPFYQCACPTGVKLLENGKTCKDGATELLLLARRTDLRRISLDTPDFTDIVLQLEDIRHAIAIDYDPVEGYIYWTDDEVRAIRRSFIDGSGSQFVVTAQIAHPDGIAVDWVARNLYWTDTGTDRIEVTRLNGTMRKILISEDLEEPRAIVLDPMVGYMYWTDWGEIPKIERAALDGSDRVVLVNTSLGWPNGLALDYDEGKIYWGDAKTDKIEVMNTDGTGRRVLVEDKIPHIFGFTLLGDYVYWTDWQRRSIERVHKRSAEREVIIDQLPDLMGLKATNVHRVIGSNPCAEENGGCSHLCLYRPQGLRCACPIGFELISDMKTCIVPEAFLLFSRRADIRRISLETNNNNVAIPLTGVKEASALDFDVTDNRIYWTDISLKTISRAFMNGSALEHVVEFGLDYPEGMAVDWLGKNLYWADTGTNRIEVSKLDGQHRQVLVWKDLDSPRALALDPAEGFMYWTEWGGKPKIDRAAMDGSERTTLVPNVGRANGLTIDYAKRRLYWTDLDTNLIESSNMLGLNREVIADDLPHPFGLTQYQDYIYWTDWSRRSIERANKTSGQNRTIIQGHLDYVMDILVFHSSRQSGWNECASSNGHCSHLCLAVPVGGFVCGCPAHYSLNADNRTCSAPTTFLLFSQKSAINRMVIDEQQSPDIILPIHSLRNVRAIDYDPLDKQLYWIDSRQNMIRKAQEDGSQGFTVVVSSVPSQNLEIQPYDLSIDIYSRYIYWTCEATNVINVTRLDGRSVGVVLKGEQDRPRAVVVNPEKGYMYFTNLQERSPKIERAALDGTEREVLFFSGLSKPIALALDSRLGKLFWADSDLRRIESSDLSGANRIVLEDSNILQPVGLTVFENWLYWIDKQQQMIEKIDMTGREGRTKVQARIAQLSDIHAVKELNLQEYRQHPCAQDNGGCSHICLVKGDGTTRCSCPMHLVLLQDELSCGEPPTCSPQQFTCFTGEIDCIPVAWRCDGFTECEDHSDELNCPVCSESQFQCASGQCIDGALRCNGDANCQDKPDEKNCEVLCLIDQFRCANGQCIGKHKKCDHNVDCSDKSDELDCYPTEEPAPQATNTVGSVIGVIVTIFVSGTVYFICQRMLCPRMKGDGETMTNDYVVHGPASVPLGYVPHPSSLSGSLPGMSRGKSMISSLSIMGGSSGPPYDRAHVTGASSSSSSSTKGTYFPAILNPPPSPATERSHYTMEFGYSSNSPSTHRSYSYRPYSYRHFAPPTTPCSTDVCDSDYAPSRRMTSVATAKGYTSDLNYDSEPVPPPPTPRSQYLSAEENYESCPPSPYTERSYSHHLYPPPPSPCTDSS
UniProt O75197, residues 32-1615: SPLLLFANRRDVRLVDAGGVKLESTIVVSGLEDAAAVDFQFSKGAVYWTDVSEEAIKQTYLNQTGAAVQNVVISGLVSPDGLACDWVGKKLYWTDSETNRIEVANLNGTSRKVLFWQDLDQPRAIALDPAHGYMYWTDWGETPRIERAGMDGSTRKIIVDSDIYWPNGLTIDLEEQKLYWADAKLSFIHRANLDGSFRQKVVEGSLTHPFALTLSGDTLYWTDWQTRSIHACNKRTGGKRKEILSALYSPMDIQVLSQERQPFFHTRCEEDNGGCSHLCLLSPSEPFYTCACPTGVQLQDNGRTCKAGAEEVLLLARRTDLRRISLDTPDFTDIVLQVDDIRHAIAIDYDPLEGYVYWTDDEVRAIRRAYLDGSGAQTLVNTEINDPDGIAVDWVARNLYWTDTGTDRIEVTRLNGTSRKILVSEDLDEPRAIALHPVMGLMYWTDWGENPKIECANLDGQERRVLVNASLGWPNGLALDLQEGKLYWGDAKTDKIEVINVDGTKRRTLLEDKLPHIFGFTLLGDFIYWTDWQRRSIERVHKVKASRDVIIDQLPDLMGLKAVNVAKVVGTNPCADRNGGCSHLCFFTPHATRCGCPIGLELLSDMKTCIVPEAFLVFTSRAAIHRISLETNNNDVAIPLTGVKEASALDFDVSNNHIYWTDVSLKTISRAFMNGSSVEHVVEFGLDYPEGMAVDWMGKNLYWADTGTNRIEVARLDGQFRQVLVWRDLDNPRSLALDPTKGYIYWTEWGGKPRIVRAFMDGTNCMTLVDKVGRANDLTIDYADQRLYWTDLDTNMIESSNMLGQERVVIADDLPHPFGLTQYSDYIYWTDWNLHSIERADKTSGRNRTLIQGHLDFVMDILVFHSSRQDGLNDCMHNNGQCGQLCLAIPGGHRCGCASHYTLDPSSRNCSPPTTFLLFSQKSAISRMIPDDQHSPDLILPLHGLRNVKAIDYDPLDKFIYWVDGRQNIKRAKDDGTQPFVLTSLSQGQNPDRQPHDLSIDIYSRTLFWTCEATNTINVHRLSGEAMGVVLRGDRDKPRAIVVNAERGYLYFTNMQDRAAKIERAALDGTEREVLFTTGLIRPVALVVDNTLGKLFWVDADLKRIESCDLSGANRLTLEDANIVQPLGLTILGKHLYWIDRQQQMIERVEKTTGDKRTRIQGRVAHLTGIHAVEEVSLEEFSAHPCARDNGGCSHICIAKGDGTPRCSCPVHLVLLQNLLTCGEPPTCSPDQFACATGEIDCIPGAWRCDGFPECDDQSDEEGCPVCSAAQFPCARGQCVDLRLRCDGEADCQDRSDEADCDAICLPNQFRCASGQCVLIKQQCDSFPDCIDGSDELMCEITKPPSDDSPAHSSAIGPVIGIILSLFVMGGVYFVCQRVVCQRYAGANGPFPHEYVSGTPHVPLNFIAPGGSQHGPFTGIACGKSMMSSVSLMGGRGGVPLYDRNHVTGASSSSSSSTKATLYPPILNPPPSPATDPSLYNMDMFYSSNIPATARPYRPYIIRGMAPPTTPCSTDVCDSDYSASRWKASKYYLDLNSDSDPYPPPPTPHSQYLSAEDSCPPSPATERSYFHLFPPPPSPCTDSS

binding [1]: binds
binding [2]: binds
binding [3]: binds
binding [4]: binds
Substance: HA tagged Axin (from UniProt O15169 1-862)

binding [5]: binds
Substance: Itch wild type (transfected) (from UniProt Q96J02-2 1-862) (enzyme)

binding [6]: binds
binding [7]: binds
binding [8]: binds
Substance: LRP5-WT (from UniProt O75197 32-1615) (receptor)
